Our source for the host macrophage viability values is the supplement of paper PMC12578635.

Structures are written as SMILES. ± gives the standard deviation of the averaged measurements. The list shows a part of the results. Repeats are few or missing, and single values can be far off.

In the experiment the test system is RAW 264.7 macrophages infected with S. aureus JE2-lux. The experiment can be described thus: host macrophage viability (CellTiter-Fluor) relative to DMSO vehicle; higher = more viable host cells. The following applies: 10 µM; treatment time 4 h; gentamicin 50 µg/ml.
As for `Cc1cc2nc(NC(=O)Nc3cccc(F)c3)sc2cc1C`, the host macrophage viability is 91.2%.

For `CC1CCCN(c2ccc(NS(=O)(=O)c3ccc4[nH]c(=O)[nH]c(=O)c4c3)cc2)C1` (centres undefined), the host macrophage viability came out at 116%.

Take `CC1=NNC(=O)/C1=N\Nc1ccc(S(=O)(=O)N2CCOCC2)cc1`: the host macrophage viability is 84.7%.

Turning to `O=C(CSc1ncnc2c1oc1ccccc12)Nc1ccc(Br)cc1`, the host macrophage viability was 124%.

With `CC1Cc2ccccc2N1C(=O)CCn1c(=O)oc2ccccc21` (centres undefined), the host macrophage viability was 111 ± 4.6%.

As to `COc1ccc(C(=O)CSc2nc3c(C)cc(C)cc3cc2C#N)cc1OC`, the host macrophage viability worked out at 101%.

With `Cc1ccc(C)c(NC(=O)c2c(-c3ccccc3Cl)noc2C)c1`, the host macrophage viability is 127%.

For the compound `COC(=O)c1sccc1NC(=O)CSc1nccnc1N1CCN(c2cccc(C)c2C)CC1`, the host macrophage viability was 104%.

On to `COc1ccccc1-n1c(CNC(=O)c2ccccc2F)n[nH]c1=S`, for which the host macrophage viability stood at 123%.

Turning to `CCCCc1ccc(NC(=O)CSC2=NS(=O)(=O)c3cc(F)ccc3N2)cc1`, the host macrophage viability amounted to 128%.

On to `Cc1[nH]c2c(C(=O)Nc3ccc(Cl)cc3)cnn2c(=O)c1C`, for which the host macrophage viability was determined as 129%.

For the compound `Cc1cccn2c(=O)c(C=O)c(Nc3ccc([N+](=O)[O-])cc3)nc12`, the host macrophage viability is 97.3 ± 2.8%.

Turning to `Cc1ccc(N2C(=O)NC3CC2(C)Oc2ccccc23)cc1Cl` (centres undefined), the host macrophage viability came out at 125%.

Consider `Cc1nnc(SCC(=O)NCCc2ccccc2)[nH]c1=O`, for which the host macrophage viability amounted to 117%.

Consider `COc1ccc(C)c2sc(NC(=O)C3=COCCO3)nc12`, for which the host macrophage viability amounted to 127%.

`Cc1cc2c(cc1NC(=O)C1OCOc3ccccc31)OCCO2` (centres undefined): the host macrophage viability was determined as 103%.

As for `CCOC(=O)c1c(NC(=O)c2cc(-c3cccs3)on2)sc2c1CCC2`, the host macrophage viability stood at 136%.

For the compound `CCN1CCN(c2nc(NCCCN3CCOCC3)nc(N)c2[N+](=O)[O-])CC1`, the host macrophage viability turned out to be 99.6%.

For the compound `Cc1cc2c(cc1C)NC(CC(=O)NC1CCCCC1)C(=O)N2` (centres undefined), the host macrophage viability turned out to be 119%.

`Cc1nn(-c2cccc(Cl)c2)c2nc(-c3ccccn3)cc(C(F)(F)F)c12`: the host macrophage viability was found to be 126%.

Consider `CC1CCCCN1c1nc2c(c(=O)[nH]c(=O)n2C)n1Cc1ccccc1` (centres undefined), for which the host macrophage viability is 107%.

On to `O=C(Nc1ccccc1)N1CCC(n2cnc3cc(F)ccc32)CC1`, for which the host macrophage viability is 124%.

Take `Cc1cccc(NC(=O)c2cccc3c2-c2ccccc2C3=O)n1`: the host macrophage viability was found to be 108%.

In the case of `O=C(CSc1nc2ccccc2n1Cc1ccccc1F)Nc1ccc2c(c1)OCCO2`, the host macrophage viability amounted to 108%.

On to `CC1(C)COc2ccc(NC(=O)C3CCCC3)cc2NC1=O`, for which the host macrophage viability stood at 107%.

On to `COC(=O)c1sc(-c2ccccc2)cc1NC(=O)c1cc(OC)cc(OC)c1`, for which the host macrophage viability came out at 110 ± 16%.

On to `NC(=O)c1cc2cc(Cl)ccc2o/c1=N/NC(=O)c1cccc(F)c1`, for which the host macrophage viability turned out to be 109%.

On to `CCCc1nnc(SCC(=O)Nc2cccc(C(F)(F)F)c2)n1-n1cccc1`, for which the host macrophage viability came to 120%.

`CCOc1ccccc1CNC(=O)C1CCCN(c2nc(C)nc3onc(C)c23)C1` (centres undefined): the host macrophage viability was determined as 127%.

Regarding `CCOc1cccc2c1OC(c1cccnc1)N1N=C(c3cccs3)CC21` (centres undefined), the host macrophage viability came out at 119%.

Regarding `O=C(c1ccc2c(c1)OCCO2)C1CCN(C(=S)Nc2ccc(F)cc2)CC1`, the host macrophage viability was found to be 102%.

As to `COc1ccc(NC(C)=O)cc1NC(=O)c1cn(C)nc1OC`, the host macrophage viability amounted to 123%.

In the case of `Cc1cccc(-c2ccc(C(=O)NCC(C)C)cn2)c1`, the host macrophage viability was 88.9%.

Take `COC(=O)C1=C(NC(=O)c2cc3ccccc3oc2=O)CCS1`: the host macrophage viability was 110%.

Regarding `Cc1cc(NC(=O)CSc2nc(=O)cc(N)n2-c2ccc(F)cc2)no1`, the host macrophage viability was found to be 113%.

`CCN1CCCC1CNC(=O)C(=O)c1cn(CC(=O)N2CCCCCC2)c2ccccc12` (centres undefined): the host macrophage viability stood at 97.2%.

As to `COc1ccc2nc(NC(=O)CSc3ncccc3C(=O)O)sc2c1`, the host macrophage viability is 108%.

Take `CCc1cccc2c(O)c(C(=O)NCc3cccnc3)cnc12`: the host macrophage viability was 122%.

As for `Cc1nc2nc(Cc3cccc(F)c3)nn2c(O)c1C`, the host macrophage viability stood at 119%.

For `CC(C)c1csc(-c2csc(S(=O)(=O)Nc3ccc(Br)cc3F)c2)n1`, the host macrophage viability worked out at 129%.

With `COc1ccc2c(Cl)c(C(=O)NCCC3=CCCCC3)sc2c1`, the host macrophage viability was determined as 112%.

For the compound `CCn1c(SCC(=O)Nc2ccccc2C(=O)OC)nc2cccnc21`, the host macrophage viability turned out to be 105%.

Regarding `Cc1ccc(S(=O)(=O)Nc2cc(C(=O)N(C)Cc3ccccc3)cnc2N2CCNCC2)cc1C`, the host macrophage viability came to 136%.

In the case of `CC(NC(=O)c1ccccc1)c1nc(-c2ccc3c(c2)nnn3C)no1` (centres undefined), the host macrophage viability came out at 109%.

For `CC(=O)NC(=O)c1cc2c(ccc3ccccc32)o/c1=N\c1ccc(F)cc1F`, the host macrophage viability was 122%.

For the compound `Cc1oc(-c2ccccc2Cl)nc1CS(=O)(=O)CC(=O)NCc1ccc(F)cc1`, the host macrophage viability amounted to 84.6%.

As for `CCCCN1CCn2c(nc3cc(NC(=O)NC4CCCCC4)ccc32)C1`, the host macrophage viability was 118%.

Take `Cc1ccc(S(=O)(=O)Nc2ccc3nncn3n2)cc1`: the host macrophage viability is 121%.

Regarding `O=C(C1=C(O)C(=O)N(Cc2cccnc2)C1c1cccc(Br)c1)c1cccs1` (centres undefined), the host macrophage viability was determined as 90.4%.

`COc1ccc(C(=O)NC2CCN(C(=O)NCc3ccccc3)CC2)cc1`: the host macrophage viability is 99%.

In the case of `CCCCSc1nc2c(cnn2-c2ccc(C)c(C)c2)c(=O)[nH]1`, the host macrophage viability was determined as 106%.

Take `O=C(CN1C(=O)c2ccccc2S1(=O)=O)NCc1ccc2c(c1)OCO2`: the host macrophage viability was found to be 115%.

Regarding `Cc1nc(OCC(=O)NC(C)(C)C)c2c(-c3cccc(F)c3)noc2n1`, the host macrophage viability was 128%.

On to `Cc1cc(NC2CCCC2)n2ncc(-c3ccc(F)cc3)c2n1`, for which the host macrophage viability stood at 103%.

For the compound `COC(=O)c1sc(-c2ccccc2)cc1NC(=O)c1ccc([N+](=O)[O-])s1`, the host macrophage viability amounted to 107 ± 8.7%.

In the case of `Fc1ccc(-c2csc3ncnc(Sc4nnnn4-c4ccccc4)c23)cc1`, the host macrophage viability was 92.9%.

With `Cc1ccccc1-n1cc(-c2ccccc2)c2c(NCCCN3CCOCC3)ncnc21`, the host macrophage viability worked out at 108%.

For the compound `COc1ccc(C2(NC(=O)C3OCOc4ccccc43)CCCCC2)cc1` (centres undefined), the host macrophage viability came out at 98.9%.

In the case of `COc1cccc(CNC(=O)CSc2nnc(-c3cc4ccccc4[nH]3)o2)c1`, the host macrophage viability came out at 110%.

As for `CCN1CCN(CC(=O)Nc2ccc(Cl)c(Cl)c2)C(=O)C1=O`, the host macrophage viability stood at 105%.

As for `O=S(=O)(Nc1ccc2cn[nH]c2c1)c1ccc(Br)cc1`, the host macrophage viability came to 129%.

Regarding `C#CCn1/c(=N/C(=O)c2cccc([N+](=O)[O-])c2)sc2cccc(F)c21`, the host macrophage viability was 118%.

As to `COc1cccc2c(=O)cc(C)n(CC(=O)Nc3ccc(Br)cc3)c12`, the host macrophage viability turned out to be 121%.

For the compound `O=C(CSc1ccc(-c2ccc(Cl)cc2)nn1)NCCc1c[nH]c2ccccc12`, the host macrophage viability stood at 110%.

Consider `CCOc1ccc(NC(=O)COc2cccc3c2CCN(C)C3=O)cc1`, for which the host macrophage viability turned out to be 124%.

As to `COc1cc(/C=N/NC(=O)CN2CCOCC2)ccc1O`, the host macrophage viability is 99.3 ± 4.3%.

Regarding `O=C1Cc2cc(NC(=O)c3cc4ccccc4oc3=O)ccc2N1`, the host macrophage viability is 115%.

On to `CC(C)N1CCC(CNC(=O)c2ccc3c(c2)NC(=O)C(C)(C)O3)CC1`, for which the host macrophage viability came out at 119%.

`Cc1nc2nc(Cc3cccc(F)c3)nn2c(N2CCN(c3ccccn3)CC2)c1C`: the host macrophage viability was 119%.
